Source: the supplement of paper PMC6411743
± gives the standard deviation of the averaged measurements. The list shows a part of the results.

Amino acid sequences for entries named in this document (tags omitted). A change or cut given only in a name is not applied to a line headed by its entry.
UniProt P15586: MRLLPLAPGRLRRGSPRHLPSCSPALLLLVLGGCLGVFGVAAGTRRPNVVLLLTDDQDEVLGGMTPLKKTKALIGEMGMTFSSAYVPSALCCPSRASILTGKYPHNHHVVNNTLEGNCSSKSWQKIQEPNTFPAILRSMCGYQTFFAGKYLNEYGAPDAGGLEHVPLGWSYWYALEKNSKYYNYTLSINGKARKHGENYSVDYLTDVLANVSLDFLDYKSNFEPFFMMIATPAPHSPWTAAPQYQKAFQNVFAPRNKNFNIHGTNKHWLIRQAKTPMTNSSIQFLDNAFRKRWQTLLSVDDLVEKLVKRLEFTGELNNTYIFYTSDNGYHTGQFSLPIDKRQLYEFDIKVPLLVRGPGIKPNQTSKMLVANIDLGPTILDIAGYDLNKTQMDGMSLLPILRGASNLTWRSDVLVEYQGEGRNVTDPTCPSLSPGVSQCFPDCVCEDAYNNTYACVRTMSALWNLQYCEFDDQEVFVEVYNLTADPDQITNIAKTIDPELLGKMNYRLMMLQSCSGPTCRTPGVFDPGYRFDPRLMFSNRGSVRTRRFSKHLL
UniProt Q15366, whole entry: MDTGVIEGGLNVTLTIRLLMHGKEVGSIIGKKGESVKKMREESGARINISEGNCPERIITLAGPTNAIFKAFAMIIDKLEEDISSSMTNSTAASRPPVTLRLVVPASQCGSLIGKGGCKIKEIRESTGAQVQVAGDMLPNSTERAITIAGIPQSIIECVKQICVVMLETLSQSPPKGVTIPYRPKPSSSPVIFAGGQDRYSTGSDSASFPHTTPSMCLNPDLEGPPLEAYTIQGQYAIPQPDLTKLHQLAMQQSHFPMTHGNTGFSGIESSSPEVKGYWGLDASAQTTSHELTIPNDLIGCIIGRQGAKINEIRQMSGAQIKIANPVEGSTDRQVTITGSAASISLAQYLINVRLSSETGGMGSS
UniProt P51784: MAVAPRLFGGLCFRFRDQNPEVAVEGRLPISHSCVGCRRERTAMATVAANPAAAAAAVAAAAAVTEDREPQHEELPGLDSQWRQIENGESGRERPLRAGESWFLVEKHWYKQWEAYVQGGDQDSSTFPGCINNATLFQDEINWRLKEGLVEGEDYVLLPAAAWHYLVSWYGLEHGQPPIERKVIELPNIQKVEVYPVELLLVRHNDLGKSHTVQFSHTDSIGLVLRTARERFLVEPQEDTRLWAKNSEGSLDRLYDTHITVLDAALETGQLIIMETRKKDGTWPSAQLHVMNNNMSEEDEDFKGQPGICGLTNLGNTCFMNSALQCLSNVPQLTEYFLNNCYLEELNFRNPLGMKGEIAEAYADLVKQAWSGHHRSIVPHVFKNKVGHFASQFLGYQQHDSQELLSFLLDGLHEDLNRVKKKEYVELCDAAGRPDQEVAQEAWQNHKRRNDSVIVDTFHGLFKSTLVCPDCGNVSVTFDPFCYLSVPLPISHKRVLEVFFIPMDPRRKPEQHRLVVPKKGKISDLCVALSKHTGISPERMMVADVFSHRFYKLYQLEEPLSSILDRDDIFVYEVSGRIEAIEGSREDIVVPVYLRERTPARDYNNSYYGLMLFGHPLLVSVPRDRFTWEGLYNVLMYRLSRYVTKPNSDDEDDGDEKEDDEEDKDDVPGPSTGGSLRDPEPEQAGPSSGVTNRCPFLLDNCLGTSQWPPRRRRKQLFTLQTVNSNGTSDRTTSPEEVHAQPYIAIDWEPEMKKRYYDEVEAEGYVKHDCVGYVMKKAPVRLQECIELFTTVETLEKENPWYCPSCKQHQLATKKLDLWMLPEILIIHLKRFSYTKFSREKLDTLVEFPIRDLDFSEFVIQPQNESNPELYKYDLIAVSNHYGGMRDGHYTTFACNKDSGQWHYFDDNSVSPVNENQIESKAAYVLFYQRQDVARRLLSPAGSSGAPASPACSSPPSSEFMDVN
UniProt P11413, whole entry: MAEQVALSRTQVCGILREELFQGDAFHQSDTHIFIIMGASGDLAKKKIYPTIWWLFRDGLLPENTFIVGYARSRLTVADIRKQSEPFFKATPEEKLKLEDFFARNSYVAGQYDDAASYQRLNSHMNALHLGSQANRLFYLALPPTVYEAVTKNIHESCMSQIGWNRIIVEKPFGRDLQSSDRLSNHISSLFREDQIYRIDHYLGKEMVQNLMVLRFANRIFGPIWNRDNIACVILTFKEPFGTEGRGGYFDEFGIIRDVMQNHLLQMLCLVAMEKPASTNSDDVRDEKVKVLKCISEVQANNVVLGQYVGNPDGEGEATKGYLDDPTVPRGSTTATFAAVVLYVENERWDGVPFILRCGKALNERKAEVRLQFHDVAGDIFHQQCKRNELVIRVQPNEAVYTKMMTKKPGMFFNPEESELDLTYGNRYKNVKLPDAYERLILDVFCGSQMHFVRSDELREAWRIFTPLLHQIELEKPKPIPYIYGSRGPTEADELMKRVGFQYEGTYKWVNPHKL

Compound: Nc1nc2c(ncn2[C@@H]2O[C@H](COP(=O)(O)OP(=O)(O)OP(=O)(O)O)[C@@H](O)[C@H]2O)c(=O)[nH]1 [guanosine triphosphate]
Assay: NP40-soluble protein abundance relative to vehicle (solubility fold change) (ratio); higher = more soluble protein in presence of GTP
Experimental: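 Solubility proteome profiling in Jurkat crude lysate. Lysate was treated with Mg-GTP (0.1-10 mM) for 10 min at room temperature and 3 min at 37 °C, then solubilised with 0.8% NP40 and benzonase, followed by ultracentrifugation. Proteins were quantified by TMT10 LC-MS/MS; the value is the NP40-soluble abundance relative to the NP40-processed vehicle, from 3 independent experiments.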

Target | NP40-soluble protein abundance (concentration: 0.1mM) | NP40-soluble protein abundance (concentration: 0.5mM) | NP40-soluble protein abundance (concentration: 1mM) | NP40-soluble protein abundance (concentration: 2mM) | NP40-soluble protein abundance (concentration: 4mM) | NP40-soluble protein abundance (concentration: 6mM) | NP40-soluble protein abundance (concentration: 8mM) | NP40-soluble protein abundance (concentration: 10mM)
UniProt E9PSI1 | 1 ± 0.09 | 1.03 ± 0.14 | 1.02 ± 0.0027 | 0.983 ± 0.056 | 0.948 ± 0.047 | 1.01 ± 0.1 | 1.06 ± 0.043 | 1.09 ± 0.077
F6S8M0 and related entries (UniProt P15586) | 0.8721 ± 0.0085 | 0.872 ± 0.023 | 0.911 ± 0.03 | 0.89 ± 0.03 | 0.874 ± 0.017 | 0.893 ± 0.018 | 0.868 ± 0.077 | 0.928 ± 0.057
F8VZX2 and related entries (UniProt Q15366) | 0.898 ± 0.042 | 0.901 ± 0.064 | 0.922 ± 0.062 | 0.909 ± 0.094 | 0.875 ± 0.085 | 0.89 ± 0.084 | 0.872 ± 0.08 | 0.877 ± 0.087
G5E9A6 and related entries (UniProt P51784) | 1.009 ± 0.0061 | 1.03 ± 0.044 | 0.947 ± 0.0056 | 0.95 ± 0.046 | 0.935 ± 0.054 | 0.917 ± 0.034 | 0.915 ± 0.03 | 0.883 ± 0.05
E7EUI8 and related entries (UniProt P11413) | 1.07 ± 0.06 | 1.06 ± 0.11 | 0.93 ± 0.035 | 0.927 ± 0.12 | 0.931 ± 0.093 | 0.896 ± 0.072 | 0.848 ± 0.076 | 0.803 ± 0.11
